We go through 4 molecules from paper PMC4604347, “Local regulation of the Srs2 helicase by the SUMO-like domain protein Esc2 promotes recombination at sites of stalled replication”.

The chains behind the UniProt entries cited, without tags or fusion partners. Where a name states a change or a piece, a line headed by the entry shows the natural chain unless it says otherwise.
UniProt P12954: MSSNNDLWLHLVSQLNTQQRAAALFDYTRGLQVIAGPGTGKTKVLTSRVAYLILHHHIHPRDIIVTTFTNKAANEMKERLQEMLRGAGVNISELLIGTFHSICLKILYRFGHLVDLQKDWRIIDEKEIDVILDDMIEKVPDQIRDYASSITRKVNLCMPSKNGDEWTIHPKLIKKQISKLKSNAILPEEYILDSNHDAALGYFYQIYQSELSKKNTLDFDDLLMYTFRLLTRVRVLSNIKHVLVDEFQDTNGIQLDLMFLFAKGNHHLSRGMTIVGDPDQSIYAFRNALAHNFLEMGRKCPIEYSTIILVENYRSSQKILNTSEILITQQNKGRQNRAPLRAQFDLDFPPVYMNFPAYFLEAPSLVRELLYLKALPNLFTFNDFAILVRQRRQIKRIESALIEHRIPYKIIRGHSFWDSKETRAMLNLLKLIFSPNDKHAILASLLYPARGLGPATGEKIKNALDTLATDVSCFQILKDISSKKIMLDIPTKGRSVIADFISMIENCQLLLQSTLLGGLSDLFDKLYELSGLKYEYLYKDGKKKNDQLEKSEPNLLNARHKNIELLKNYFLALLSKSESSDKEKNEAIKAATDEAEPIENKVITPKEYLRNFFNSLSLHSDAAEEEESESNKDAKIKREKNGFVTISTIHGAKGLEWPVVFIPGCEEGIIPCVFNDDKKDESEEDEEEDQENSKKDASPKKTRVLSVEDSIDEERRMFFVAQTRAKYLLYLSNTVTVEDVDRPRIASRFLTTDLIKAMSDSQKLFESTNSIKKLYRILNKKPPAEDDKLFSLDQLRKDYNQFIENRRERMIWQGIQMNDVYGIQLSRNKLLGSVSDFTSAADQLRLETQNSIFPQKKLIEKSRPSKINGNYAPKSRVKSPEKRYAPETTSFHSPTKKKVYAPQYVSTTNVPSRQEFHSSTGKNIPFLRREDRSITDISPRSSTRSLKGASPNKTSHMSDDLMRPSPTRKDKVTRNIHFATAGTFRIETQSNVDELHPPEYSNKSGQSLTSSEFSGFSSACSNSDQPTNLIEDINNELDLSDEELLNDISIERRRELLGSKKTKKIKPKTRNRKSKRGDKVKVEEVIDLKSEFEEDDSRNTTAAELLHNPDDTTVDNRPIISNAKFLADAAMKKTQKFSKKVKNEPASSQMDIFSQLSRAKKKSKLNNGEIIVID
UniProt Q12050: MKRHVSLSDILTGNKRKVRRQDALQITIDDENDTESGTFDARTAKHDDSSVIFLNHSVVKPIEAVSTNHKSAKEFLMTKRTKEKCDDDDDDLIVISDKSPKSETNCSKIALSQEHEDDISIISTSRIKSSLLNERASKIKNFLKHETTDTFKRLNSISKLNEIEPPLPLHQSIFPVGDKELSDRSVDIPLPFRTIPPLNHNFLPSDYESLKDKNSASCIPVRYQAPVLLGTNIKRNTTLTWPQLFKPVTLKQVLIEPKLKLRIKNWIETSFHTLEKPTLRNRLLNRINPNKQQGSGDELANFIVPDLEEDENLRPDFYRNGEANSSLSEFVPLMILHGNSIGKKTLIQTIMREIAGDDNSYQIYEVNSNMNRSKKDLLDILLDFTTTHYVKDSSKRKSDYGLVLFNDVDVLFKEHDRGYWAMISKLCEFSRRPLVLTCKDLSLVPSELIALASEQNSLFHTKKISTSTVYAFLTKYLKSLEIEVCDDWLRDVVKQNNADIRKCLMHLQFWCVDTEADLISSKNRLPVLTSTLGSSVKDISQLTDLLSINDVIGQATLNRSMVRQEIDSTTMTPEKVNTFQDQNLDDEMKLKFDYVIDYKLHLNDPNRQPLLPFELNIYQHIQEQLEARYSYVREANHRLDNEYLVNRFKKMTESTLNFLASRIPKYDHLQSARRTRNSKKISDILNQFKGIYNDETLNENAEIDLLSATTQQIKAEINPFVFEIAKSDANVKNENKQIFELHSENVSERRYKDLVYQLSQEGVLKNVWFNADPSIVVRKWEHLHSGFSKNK

Assay [1] has as its target T1, GST-Esc2 (S. cerevisiae) (UniProt Q06340).
T1 sequence: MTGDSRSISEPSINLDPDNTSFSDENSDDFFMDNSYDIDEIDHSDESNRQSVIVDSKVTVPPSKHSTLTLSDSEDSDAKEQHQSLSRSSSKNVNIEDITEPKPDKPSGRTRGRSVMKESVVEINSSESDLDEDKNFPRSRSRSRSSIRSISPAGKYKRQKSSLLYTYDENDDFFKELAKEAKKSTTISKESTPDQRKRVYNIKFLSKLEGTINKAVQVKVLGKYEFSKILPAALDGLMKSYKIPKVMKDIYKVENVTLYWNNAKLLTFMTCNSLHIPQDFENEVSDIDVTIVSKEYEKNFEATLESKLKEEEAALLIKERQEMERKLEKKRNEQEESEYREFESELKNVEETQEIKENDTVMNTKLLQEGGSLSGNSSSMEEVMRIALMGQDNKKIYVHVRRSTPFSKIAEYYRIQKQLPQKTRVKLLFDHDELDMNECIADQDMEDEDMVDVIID
The assay can be described thus: pull-down; 'in vivo pull-down': purified recombinant GST-Esc2 (wild type or mutants) with total yeast cell lysate, with or without ethidium bromide; complexes on the beads analysed by protein blotting; only the target purified.

The target of assay [2] is GST-Srs2ΔN (S. cerevisiae) (UniProt P12954). As to the kind of experiment: pull-down; 'in vivo pull-down': purified recombinant GST-Srs2ΔN variants with total yeast cell lysate; protein blotting; only the target purified.

No constants are given. Whether binding was seen depends on the method and setting. In cells and extracts the contact can be indirect. Binding calls can cover weak binding; strength is not graded here. Where a sequence is shown, tags or fusion partners need not be part of it.

As to “Elg1-PIP variant (Flag-tagged) (from UniProt Q12050)”, the binding entry in assay [1] is on record as “binds”.

B1: Esc2-Flag (protein, UniProt Q06340 1-456)
chain: T1 sequence
Regarding B1, the binding result in assay [2] is recorded as “binds”.

B2: Esc2-Myc (protein, UniProt Q06340 1-456)
chain: T1 sequence
Regarding B2, the binding entry in assay [2] is “binds”.

B3: Slx5 (protein, UniProt P32828 1-619)
chain: MHSDTNGRTKSNNSPSDNNPNETVILIDSDKEEDASIREANLPVRLYPDRRVGRRRDALNRFVRSDSRSRNSQRTHITASSERPDFQANNDDITIIREVGRFFGDDGPIDPSAHYVDLDQEPGSETLETPRTIQVDNTNGYLNDNGNNNESDDGLTIVEERTTRPRVTLNLPGGERLEVTATTTDIPIRRSFEFQEDLGASRRQLLRRSATRARNLFVDRSDENDEDWTDDTHNLPEAIQRARRESRMRMSRRIAERQRRVQQQRVSSDENISTSIRLQSIRERIQSYTPDIRSAFHRAESLHEFRSILQNVAPITLQECEEELMALFTEFRNQLLQNWAIDRVRNTQEEALRLHREALERQERTAGRVFHRGTLRESITNYLNFNGEDGFLSRLWSGPALSDADEERHTQNIIDMIQEREERERDVVMKNLMNKTRAQQEEFEARAASLPEGYSASFDTTPKMKLDITKNGKEETIIVTDDDLAKTLEDIPVCCLCGAELGVGIPDDFTGISQKDRGVSFEGLVSKYKFHCPYQTLARPSMLDRDLSKRTFIASCGHAFCGRCFARIDNAKKKSKMPKKKLAQLKGSAHPDNYGPKLCPADSCKKLIRSRGRLKEVYF
B3: in assay [2], the binding result is recorded as “binds”.
